Screen size: about 300,000 compounds; about 3,700 (1.2%) were called active. Inconclusive results, whose numbers are uncertain, are shown with a selection of clear calls. Calls come from the whole dose curve; tested in HEK293 cells. A potency beside an inconclusive call is a rough fit, not a confirmed value.
test: qHTS for Inhibitors of binding or entry into cells for Lassa Virus; settings: Lassa virus pseudotype entry inhibition, cell reporter; series mostly up to 37.9 µM; note: nearly all actives have a fitted effect of over 50% in size
Potency is the fitted concentration of half-maximal effect.

Row | SMILES | Potency
1 | CCCCNC(=O)Nc1nc2ccccc2s1 | inactive
2 | CC(=O)NCCC(=O)N1CCCC(C(=O)c2ccc3c4c(cccc24)CC3)C1 (centres undefined) | inconclusive: 4.47 µM [inhibitor, full curve, poor fit]
3 | O=c1c(C=NCc2ccccc2)c(NCc2ccccc2)nc2ccccn12 | inconclusive: 14.1 µM [inhibitor, single point]
4 | Cc1cc(S(=O)(=O)N(Cc2ccc(C(C)C)cc2)CC2CCCO2)ccc1-n1cnnn1 (centres undefined) | inconclusive: 16.4 µM [inhibitor, partial curve]
5 | O=C1CC(c2c(F)cccc2Cl)c2c(ccc3ccccc23)N1 (centres undefined) | inactive
6 | COc1ccc(CNC(=O)Cc2coc3ccc(C)cc23)cc1 | inactive
7 | Cc1ccc(NC(=O)c2oc3ccc(S(=O)(=O)N4CCOCC4)cc3c2C)c(C)c1 | inconclusive: 6.31 µM [inhibitor, partial curve, poor fit]
8 | COc1ccc(-n2c(-c3ccccc3)c[n+]3c2CCC3)cc1 | inconclusive: 35.5 µM [inhibitor, single point]
9 | COc1ccc(-c2noc(CCC(=O)O)n2)cc1 | inconclusive: 22.4 µM [inhibitor, single point]
10 | CCN1/C(=C/C(=S)Nc2ccccc2)Sc2ccccc21 | inconclusive: 35.5 µM [inhibitor, single point]
11 | O=C(CCN1C(=O)C2CCCCC2C1=O)N1CCN(S(=O)(=O)c2cccc(F)c2)CC1 (centres undefined) | inactive
12 | O=C(c1ccc(S(=O)(=O)N2CCCCCC2)cc1)N1CCC(CN2C(=O)c3cccc4cccc(c34)C2=O)CC1 | inconclusive: 15.8 µM [inhibitor, single point]
13 | COc1ccc(C)cc1NC(=O)CN1CCN(S(=O)(=O)c2ccc(F)cc2)CC1 | inactive
14 | CC1=CC(C)C2(CO)COC(c3ccccc3O)C1C2C (centres undefined) | inconclusive: 29.1 µM [inhibitor, single point]
15 | Cc1ccc(S(=O)(=O)NC2c3cccc4cccc(c34)C2Sc2nncn2C)cc1 (centres undefined) | inconclusive: 23.1 µM [inhibitor, single point]
16 | COc1ccccc1Nc1nn2c(=O)c3ccc(C(=O)N4CCCC(C)C4)cc3nc2s1 (centres undefined) | inconclusive: 1.12 µM [inhibitor, full curve, poor fit]
17 | Cc1ccc(-n2nc(C)c3c(C(=O)NCc4ccccc4)cc(C4CC4)nc32)cc1 | inactive
18 | NC(=S)NC1CCS(=O)(=O)C1 (centres undefined) | inactive
19 | O=C(Cn1cc(C(F)(F)F)ccc1=O)N1CCCc2ccccc21 | inconclusive: 1.12 µM [inhibitor, partial curve, poor fit]
20 | CCCCCCCCNC(=S)NCCN1CCCCC1 | inconclusive: 29.1 µM [inhibitor, single point]
21 | COc1ccc(Br)cc1C(=O)NC(=S)Nc1ccc(Cl)c(C(=O)O)c1 | inactive
22 | O=C(Cc1ccccc1)NCCc1csc2nc(-c3ccc(Cl)cc3)nn12 | inactive
23 | COc1ccc(NC(=O)c2cccc([N+](=O)[O-])c2)cc1 | inconclusive: 20 µM [activator, single point]
24 | CCOC(=O)c1oc2ccc(S(=O)(=O)n3nc(-c4ccc(Br)cc4)cc3N)cc2c1C | inconclusive: 2.82 µM [inhibitor, partial curve, poor fit]
25 | COc1ccc(CNC(=O)c2c3c(nc4ccccc24)C(=O)N(C2CCCCC2)C3)cc1 | inactive

Row | SMILES | Potency
26 | COc1cccc(CNC(=O)c2nn(-c3ccc(C)cc3)c(=O)c3c2c2ccccc2n3C)c1 | inactive
27 | Cc1cc(/C=N\NC(=O)c2cccs2)c(C)n1-c1ccc2ncccc2c1 | active: 10 µM
28 | CCc1ccc(C(=O)NN(C(=O)c2ccc(CC)cc2)C(C)(C)C)cc1 | inconclusive: 32.6 µM [inhibitor, partial curve, poor fit]
29 | CCCn1nc(NC(=O)c2ccco2)c2cc3ccccc3nc21 | inconclusive: 29.1 µM [inhibitor, single point]
30 | Brc1c(NC2=NCCN2)ccc2nccnc12 | inconclusive: 0.82 µM [inhibitor, full curve]
31 | O=C(CCCn1nnnc1CN1CCOCC1)N1CCC(c2ccc(F)cc2)C1 (centres undefined) | inconclusive: 2.24 µM [activator, single point]
32 | Cc1cc(NC(=O)COc2coc(CN3CCN(c4ccccc4)CC3)cc2=O)no1 | inactive
33 | CC(=O)c1cccc(NC(=S)NCc2ccccc2)c1 | inactive
34 | O=[N+]([O-])c1cccc(-c2nc(-c3ccncc3)no2)c1 | inactive
35 | COc1ccc(NC(=O)CSc2nnc(NC(=O)Nc3ccccc3)s2)cc1OC | inconclusive: 20 µM [activator, partial curve, poor fit]
36 | O=C(Nc1ccc(S(=O)(=O)Nc2ncccn2)cc1)c1ccccc1Cl | inactive
37 | Nc1ccc(C(=O)N2CCN(S(=O)(=O)c3ccc4c(c3)OCCO4)CC2)cc1[N+](=O)[O-] | inconclusive: 17.8 µM [activator, partial curve, poor fit]
38 | Cc1cccc(N2CCN(C(=O)c3cc4cc(F)ccc4[nH]3)CC2)c1C | inconclusive: 3.16 µM [inhibitor, full curve, poor fit]
39 | NC(=O)CN1C(=O)NC(c2ccccc2)(c2ccccc2)C1=O | inactive
40 | Cc1cc(C(=O)CSc2ncnc3ccccc23)c(C)n1C1CC1 | inactive
41 | COc1ccc(C(=O)Nc2nnc(S(=O)(=O)N(CC(C)C)c3ccc(C)cc3)s2)cc1OC | inconclusive: 5.01 µM [activator, full curve, poor fit]
42 | COc1ccc(NCC(=O)n2c(C)c(C)c3ccccc32)cc1 | inconclusive: 7.08 µM [inhibitor, partial curve, poor fit]
43 | COc1ccc(C(=O)OCC(=O)NCc2ccccc2)c(OC)c1OC | inconclusive: 12.6 µM [inhibitor, partial curve, poor fit]
44 | Cc1nc(SCc2ccc([N+](=O)[O-])cc2)n[nH]1 | inactive
45 | CN(C)S(=O)(=O)N1CCC(Oc2cccc(C(=O)NC3CCOC3)c2)CC1 (centres undefined) | inactive
46 | CN(C)CCOC(=O)COc1ccc(Cl)cc1 | inconclusive: 0.0065 µM [activator, full curve]
47 | CCOC(=O)c1sc(NC(=O)c2ccncc2)c(C#N)c1C | inactive
48 | CN1CCc2c(sc3c2C(=O)NC(c2cn(Cc4ccccc4)c4ccccc24)N3)C1 (centres undefined) | inconclusive: 35.5 µM [inhibitor, single point]
49 | CCC(C)(C(=O)NC1CCCCC1)N(CC1CCCO1)C(=O)CNC(=O)c1ccccc1 (centres undefined) | inconclusive: 1.16 µM [inhibitor, single point]
50 | CC(C)(C)C1=CC(=O)C(N2CCOCC2)=CC1=O | active: 12.6 µM

Laid out differently: entries from further up.
Row	SMILES	Potency
36	O=C(Nc1ccc(S(=O)(=O)Nc2ncccn2)cc1)c1ccccc1Cl	inactive
37	Nc1ccc(C(=O)N2CCN(S(=O)(=O)c3ccc4c(c3)OCCO4)CC2)cc1[N+](=O)[O-]	inconclusive: 17.8 µM [activator, partial curve, poor fit]
38	Cc1cccc(N2CCN(C(=O)c3cc4cc(F)ccc4[nH]3)CC2)c1C	inconclusive: 3.16 µM [inhibitor, full curve, poor fit]

(continued)

Row | SMILES | Potency
51 | CCn1cc(C(=O)NCc2ccccc2Cl)c(=O)c2cc(S(=O)(=O)N3CCc4ccccc4C3)ccc21 | inactive
52 | COc1ccccc1CNC(=O)CCCn1c(=O)c2ccccc2n(CC(=O)Nc2c(C)cc(C)cc2C)c1=O | inactive
53 | Nc1ccc(N2CCN(c3ccc(F)cc3)CC2)cc1 | inconclusive: 6.31 µM [inhibitor, single point]
54 | CCOc1ccc2cc(/C=C/C(=O)c3ccco3)c(Cl)nc2c1 | inconclusive: 29.1 µM [inhibitor, single point]
55 | CCN(CC)c1ccc2c(C)c(-c3ccc(N)cc3)c(=O)oc2c1 | active: 10 µM
56 | Cc1ccc(/C=N/Nc2ncc(Cl)cc2Cl)s1 | inconclusive: 23.1 µM [inhibitor, single point]
57 | Cc1ccc(S(=O)(=O)N2CCOCC2)cc1C(=O)OC(C)C(=O)c1ccccc1 (centres undefined) | inactive
58 | COc1cc(C2N=C(c3ccccc3)NO2)cc(Br)c1O (centres undefined) | inconclusive: 31.6 µM [activator, single point]
59 | O=S(=O)(/C=C/C=C/S(=O)(=O)c1ccccc1)c1ccccc1 | active: 1 µM
60 | Cc1noc(/C=C/c2cccs2)c1S(=O)(=O)N1CCC(C(=O)NCc2ccccc2Cl)CC1 | inactive
61 | CC(=O)Nc1ccc(/C=C2\Sc3ccccc3C2=O)cc1 | inactive
62 | Cc1ccc(C2CC(=O)c3cnc(N4CCc5ccccc5C4)nc3C2)cc1 (centres undefined) | active: 3.66 µM
63 | CC(C)=CC(=O)Nc1nnc(-c2ccccc2C)s1 | inactive
64 | NS(=O)(=O)c1ccc(NC(=O)/C=C/c2ccc3c(c2)OCO3)cc1 | inconclusive: 2.51 µM [inhibitor, full curve, poor fit]
65 | CN(C)/C=C(\C#N)c1nc2ccccc2[nH]1 | inactive
66 | COc1cccc(Cn2c(CNC(=O)c3cc([N+](=O)[O-])ccc3Cl)nc3cccnc32)c1 | inactive
67 | CC(/C=N/NC(=O)Cn1cnc2ccccc21)=C\c1ccccc1 | inconclusive: 32.6 µM [inhibitor, partial curve, poor fit]
68 | N#CC(C#N)=Cc1cccn1-c1ccc(S(N)(=O)=O)cc1 | inconclusive: 6.31 µM [inhibitor, partial curve, poor fit]
69 | CCOc1ccc(S(=O)(=O)N2CCN(C(=O)c3oc4ccc(OC)cc4c3C)CC2)cc1 | inconclusive: 7.08 µM [inhibitor, partial curve, poor fit]
70 | Cc1cc(Cl)c2ccccc2n1 | inconclusive: 0.112 µM [inhibitor, partial curve, poor fit]
71 | O=C1C=C(Nc2ccc(F)cc2)c2ccccc2C1=O | inconclusive: 14.1 µM [inhibitor, partial curve, poor fit]
72 | Cn1c(=O)c2c(ncn2CC(=O)Nc2cccc(Cl)c2Cl)n(C)c1=O | inactive
73 | O=C1OC(=O)C2C1[C@@H]1CC[C@H]2O1 (some centres undefined) | inconclusive: 20.6 µM [inhibitor, single point]
74 | CCN(CC)C(=O)CSc1nc2cc(OC)c(OC)cc2c(=O)n1Cc1ccc(Cl)cc1 | inconclusive: 8.2 µM [inhibitor, partial curve, poor fit]

Source: PubChem BioAssay AID540256 (National Center for Advancing Translational Sciences (NCATS), 2011)
